Reference: PMC6996922
No constants are given. Whether binding was seen depends on the method and setting. In cells and extracts the contact can be indirect. Some entries that bind do so weakly or less than the wild type.

By UniProt entry, the sequences of proteins in these tests, tags left out.
UniProt Q9HAW4: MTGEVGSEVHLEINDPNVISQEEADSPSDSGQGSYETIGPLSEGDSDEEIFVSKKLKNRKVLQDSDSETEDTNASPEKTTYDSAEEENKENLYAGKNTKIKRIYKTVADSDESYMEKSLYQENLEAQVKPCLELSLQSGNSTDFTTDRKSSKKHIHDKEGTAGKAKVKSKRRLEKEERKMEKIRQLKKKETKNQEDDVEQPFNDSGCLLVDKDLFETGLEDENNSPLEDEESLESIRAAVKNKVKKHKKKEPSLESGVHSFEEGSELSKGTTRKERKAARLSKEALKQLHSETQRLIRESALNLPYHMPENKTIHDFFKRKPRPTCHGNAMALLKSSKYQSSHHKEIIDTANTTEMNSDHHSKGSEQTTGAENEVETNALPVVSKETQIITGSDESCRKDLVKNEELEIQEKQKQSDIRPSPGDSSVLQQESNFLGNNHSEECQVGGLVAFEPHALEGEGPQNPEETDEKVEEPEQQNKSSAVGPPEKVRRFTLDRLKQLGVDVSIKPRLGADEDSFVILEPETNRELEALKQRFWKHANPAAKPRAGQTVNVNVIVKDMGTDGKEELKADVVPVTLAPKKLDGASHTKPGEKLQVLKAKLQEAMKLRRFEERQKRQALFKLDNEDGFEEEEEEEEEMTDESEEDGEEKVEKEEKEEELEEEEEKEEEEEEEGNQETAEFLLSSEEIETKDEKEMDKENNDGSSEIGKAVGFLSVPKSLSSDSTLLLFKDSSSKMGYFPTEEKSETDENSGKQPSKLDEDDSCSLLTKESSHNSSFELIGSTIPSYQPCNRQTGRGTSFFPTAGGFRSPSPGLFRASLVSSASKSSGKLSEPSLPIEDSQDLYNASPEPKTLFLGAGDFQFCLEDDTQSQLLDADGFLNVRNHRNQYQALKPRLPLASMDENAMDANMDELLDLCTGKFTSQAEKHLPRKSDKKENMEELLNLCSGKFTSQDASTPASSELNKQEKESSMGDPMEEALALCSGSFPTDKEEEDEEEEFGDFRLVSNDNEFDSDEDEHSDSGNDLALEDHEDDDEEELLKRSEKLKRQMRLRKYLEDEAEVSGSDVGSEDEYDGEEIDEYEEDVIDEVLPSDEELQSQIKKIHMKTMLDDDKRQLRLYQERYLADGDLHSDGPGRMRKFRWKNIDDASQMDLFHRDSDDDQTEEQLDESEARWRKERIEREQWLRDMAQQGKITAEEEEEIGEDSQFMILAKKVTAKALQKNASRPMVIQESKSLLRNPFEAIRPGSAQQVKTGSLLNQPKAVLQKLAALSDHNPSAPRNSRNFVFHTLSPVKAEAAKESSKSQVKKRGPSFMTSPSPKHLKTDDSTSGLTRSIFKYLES

Key:
[1] = biological target: T1, Chk1, endogenous (human (endogenous in 293T and HCT116)) (UniProt O14757); assay: co-IP; endogenous proteins, 293T cells with siControl or siCdc7 for 48 hr, with or without 2 mM HU for 4 hr; CSK buffer with 0.1% Triton-X100; pulled down with anti-Chk1 antibody; western blot with anti-Claspin and anti-Chk1
T1 sequence: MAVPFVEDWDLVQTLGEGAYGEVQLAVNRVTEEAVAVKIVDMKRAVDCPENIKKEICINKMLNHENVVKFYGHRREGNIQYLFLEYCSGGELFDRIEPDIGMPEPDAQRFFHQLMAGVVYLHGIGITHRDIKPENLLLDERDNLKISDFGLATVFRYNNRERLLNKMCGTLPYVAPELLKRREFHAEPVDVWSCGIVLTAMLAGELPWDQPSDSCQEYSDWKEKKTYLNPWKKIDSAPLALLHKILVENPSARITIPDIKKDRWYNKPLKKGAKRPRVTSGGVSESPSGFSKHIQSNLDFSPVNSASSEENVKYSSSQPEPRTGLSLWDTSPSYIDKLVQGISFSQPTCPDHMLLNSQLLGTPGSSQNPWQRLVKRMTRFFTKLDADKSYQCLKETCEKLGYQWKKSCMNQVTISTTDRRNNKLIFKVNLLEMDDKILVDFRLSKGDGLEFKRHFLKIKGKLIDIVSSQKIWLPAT

[2] = biological target: T1, Chk1, endogenous (human (endogenous in 293T and HCT116)); assay: co-IP; endogenous proteins, HCT116 and HCT116-323 (Cdc7 promoter mutant) treated with 2 mM HU for 4 hr; pulled down with anti-Chk1 antibody; western blot with anti-Claspin and anti-Chk1

binding [1]: binds | binding [2]: binds
Substance: Claspin, endogenous (from UniProt Q9HAW4 1-1339)
